Measured values from publication PMC3175000.
Results are given in words; binding and its absence hold for the method and conditions named.

Chains of the proteins cited; added tags and fusions are not shown. Residues count along the entry.
UniProt P02769, residues 25-607: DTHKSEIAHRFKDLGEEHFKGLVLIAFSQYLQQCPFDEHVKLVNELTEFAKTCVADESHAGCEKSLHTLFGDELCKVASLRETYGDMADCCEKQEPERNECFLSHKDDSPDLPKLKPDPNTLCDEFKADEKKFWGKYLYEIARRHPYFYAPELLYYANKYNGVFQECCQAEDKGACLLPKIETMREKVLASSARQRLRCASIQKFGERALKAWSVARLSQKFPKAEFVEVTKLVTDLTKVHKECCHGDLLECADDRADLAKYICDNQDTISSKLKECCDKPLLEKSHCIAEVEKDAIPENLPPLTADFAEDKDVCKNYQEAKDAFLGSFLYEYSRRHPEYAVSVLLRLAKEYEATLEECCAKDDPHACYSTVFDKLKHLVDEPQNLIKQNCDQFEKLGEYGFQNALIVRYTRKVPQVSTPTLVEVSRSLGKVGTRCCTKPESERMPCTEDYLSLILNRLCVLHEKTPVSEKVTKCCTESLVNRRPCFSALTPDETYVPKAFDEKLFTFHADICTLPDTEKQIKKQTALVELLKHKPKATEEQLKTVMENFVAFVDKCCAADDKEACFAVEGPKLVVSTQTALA

Molecular target: bovine serum albumin (bovine) (UniProt P02769)
Test: condition: 0.125, 0.25, 0.5 and 1 µg BSA dotted; Ofd2 5 µg/ml; far-Western, overlay or dot blot; dot blot: 0.125, 0.25, 0.5 and 1 µg of histones or BSA dotted onto PVDF, blocked in 5% dry milk in PBS, probed with Ofd2 (5 µg/ml in PBS/0.005% Tween 20) at 4°C over night; detected with anti-Ofd2 antibody and chemiluminescence; both purified

## Schizosaccharomyces pombe Ofd2 (2OG/Fe(II) dioxygenase 2) (from UniProt Q9UT12) (enzyme)
  binding: no binding
